The other results are listed elsewhere or left out. Most values lie at the level of the controls, where differences are scatter.
The targets below were run with Cc1nc(Nc2ncc(C(=O)Nc3c(C)cccc3Cl)s2)cc(N2CCN(CCO)CC2)n1 [dasatinib] (assay: log2 fold change of tryptic peptide abundance, ligand vs vehicle (limited proteolysis) (log2 ratio); higher = more trypsin-susceptible (destabilized)). Conditions: ligand concentration: 5 uM; sample: K562 cleared lysate.

Sequences of proteins named here, by UniProt entry; tags and fusion partners are left off. A change or cut given only in a name is not applied to a line headed by its entry.
UniProt Q9UJ70, whole entry: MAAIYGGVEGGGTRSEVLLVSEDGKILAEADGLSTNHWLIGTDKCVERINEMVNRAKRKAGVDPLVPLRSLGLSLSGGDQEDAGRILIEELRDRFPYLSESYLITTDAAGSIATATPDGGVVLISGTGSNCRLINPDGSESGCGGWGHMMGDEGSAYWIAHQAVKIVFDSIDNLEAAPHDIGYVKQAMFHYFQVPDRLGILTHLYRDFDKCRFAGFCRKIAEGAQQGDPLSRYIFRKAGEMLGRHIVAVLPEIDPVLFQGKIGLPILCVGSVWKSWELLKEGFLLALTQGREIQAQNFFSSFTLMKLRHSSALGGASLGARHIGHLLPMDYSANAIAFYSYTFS
UniProt Q9Y248: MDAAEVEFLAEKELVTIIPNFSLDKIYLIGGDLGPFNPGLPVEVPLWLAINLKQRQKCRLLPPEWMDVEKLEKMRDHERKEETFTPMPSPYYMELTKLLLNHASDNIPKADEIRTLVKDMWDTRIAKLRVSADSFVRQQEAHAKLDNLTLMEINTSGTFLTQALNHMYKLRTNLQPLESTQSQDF
UniProt Q9UNA4: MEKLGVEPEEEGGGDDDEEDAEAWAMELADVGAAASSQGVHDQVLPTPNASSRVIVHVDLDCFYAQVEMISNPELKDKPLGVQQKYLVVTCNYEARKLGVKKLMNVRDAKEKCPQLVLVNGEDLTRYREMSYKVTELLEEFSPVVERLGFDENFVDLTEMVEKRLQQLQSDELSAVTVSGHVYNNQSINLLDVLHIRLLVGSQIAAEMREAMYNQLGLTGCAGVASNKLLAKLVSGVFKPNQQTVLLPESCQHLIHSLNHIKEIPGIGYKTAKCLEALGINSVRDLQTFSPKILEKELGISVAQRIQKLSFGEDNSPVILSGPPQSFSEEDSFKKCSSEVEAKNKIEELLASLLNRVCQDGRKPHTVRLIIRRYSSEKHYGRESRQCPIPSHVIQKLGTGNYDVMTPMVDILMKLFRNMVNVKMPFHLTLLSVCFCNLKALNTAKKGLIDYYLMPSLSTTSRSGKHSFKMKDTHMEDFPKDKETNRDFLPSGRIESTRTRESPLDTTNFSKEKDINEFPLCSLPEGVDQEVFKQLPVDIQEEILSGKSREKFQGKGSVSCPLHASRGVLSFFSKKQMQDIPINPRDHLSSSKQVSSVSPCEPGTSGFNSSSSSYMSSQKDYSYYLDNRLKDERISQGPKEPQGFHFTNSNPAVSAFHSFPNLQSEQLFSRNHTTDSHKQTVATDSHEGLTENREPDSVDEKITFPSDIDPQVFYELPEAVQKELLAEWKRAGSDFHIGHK
UniProt Q9UK45: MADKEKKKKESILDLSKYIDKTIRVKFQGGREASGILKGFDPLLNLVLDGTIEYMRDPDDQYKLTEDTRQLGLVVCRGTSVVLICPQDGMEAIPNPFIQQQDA
UniProt Q9UKG1: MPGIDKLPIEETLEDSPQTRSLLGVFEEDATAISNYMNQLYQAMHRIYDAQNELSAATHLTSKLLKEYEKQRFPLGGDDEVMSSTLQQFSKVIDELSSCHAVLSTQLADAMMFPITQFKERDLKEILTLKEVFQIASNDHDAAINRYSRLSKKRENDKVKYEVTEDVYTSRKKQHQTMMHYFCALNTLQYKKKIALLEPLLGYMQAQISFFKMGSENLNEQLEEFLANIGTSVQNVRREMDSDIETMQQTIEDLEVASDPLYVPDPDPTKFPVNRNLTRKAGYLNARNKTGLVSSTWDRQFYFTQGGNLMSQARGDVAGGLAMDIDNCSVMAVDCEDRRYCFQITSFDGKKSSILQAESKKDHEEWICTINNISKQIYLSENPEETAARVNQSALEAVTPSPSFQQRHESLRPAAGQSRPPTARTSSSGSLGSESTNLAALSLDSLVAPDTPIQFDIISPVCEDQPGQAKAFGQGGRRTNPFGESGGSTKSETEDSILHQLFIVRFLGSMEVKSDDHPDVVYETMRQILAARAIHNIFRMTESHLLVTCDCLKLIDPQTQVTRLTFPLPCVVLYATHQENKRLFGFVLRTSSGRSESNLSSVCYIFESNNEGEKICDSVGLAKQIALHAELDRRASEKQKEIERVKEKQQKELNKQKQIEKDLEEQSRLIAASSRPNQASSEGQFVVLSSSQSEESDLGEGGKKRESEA
UniProt Q9UL63, whole entry: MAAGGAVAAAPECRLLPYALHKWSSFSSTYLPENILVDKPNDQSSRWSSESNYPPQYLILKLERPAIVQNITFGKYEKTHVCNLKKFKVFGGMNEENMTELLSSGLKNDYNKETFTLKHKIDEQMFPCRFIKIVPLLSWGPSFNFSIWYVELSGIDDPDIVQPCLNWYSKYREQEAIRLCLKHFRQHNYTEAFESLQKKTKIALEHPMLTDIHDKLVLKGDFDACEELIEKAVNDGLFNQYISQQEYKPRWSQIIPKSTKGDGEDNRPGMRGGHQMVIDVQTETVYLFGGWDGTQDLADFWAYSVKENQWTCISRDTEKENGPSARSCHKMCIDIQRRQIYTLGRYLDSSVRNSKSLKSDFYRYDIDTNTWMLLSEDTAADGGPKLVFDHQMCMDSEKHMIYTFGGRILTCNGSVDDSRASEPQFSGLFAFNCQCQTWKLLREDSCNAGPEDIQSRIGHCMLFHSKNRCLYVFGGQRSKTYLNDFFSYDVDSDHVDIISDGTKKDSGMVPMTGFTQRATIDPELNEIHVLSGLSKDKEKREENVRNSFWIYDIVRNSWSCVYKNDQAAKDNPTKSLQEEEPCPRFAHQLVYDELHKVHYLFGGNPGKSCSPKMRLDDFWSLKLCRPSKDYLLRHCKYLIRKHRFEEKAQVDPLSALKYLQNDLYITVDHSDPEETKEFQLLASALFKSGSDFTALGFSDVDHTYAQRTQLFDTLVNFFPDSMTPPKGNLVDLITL
UniProt Q9UK41: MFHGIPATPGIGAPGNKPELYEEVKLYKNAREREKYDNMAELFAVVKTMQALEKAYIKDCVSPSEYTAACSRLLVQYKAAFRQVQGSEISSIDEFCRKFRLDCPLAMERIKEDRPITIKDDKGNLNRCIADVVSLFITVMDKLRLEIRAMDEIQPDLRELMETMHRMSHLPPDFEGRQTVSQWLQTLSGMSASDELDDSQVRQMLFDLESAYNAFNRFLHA
UniProt Q9UJT2: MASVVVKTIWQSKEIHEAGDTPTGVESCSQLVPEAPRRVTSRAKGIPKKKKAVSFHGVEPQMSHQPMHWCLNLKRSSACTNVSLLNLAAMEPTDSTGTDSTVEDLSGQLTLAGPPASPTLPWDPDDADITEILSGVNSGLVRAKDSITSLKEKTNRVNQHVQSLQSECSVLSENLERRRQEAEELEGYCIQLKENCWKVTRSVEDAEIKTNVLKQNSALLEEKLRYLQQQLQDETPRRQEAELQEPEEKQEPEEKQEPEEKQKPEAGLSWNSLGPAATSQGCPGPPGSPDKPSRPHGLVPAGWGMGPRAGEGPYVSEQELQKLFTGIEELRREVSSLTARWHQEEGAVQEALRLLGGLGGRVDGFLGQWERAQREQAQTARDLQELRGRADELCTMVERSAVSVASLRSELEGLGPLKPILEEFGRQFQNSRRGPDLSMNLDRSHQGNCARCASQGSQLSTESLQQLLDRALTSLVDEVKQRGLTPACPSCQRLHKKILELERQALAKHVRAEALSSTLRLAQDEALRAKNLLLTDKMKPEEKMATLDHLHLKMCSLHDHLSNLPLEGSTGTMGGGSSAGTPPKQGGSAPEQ
UniProt Q9ULR5: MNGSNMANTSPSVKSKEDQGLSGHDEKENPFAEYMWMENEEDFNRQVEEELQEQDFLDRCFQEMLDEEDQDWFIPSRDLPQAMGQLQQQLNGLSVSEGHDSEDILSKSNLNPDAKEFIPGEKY
UniProt Q9UPT5: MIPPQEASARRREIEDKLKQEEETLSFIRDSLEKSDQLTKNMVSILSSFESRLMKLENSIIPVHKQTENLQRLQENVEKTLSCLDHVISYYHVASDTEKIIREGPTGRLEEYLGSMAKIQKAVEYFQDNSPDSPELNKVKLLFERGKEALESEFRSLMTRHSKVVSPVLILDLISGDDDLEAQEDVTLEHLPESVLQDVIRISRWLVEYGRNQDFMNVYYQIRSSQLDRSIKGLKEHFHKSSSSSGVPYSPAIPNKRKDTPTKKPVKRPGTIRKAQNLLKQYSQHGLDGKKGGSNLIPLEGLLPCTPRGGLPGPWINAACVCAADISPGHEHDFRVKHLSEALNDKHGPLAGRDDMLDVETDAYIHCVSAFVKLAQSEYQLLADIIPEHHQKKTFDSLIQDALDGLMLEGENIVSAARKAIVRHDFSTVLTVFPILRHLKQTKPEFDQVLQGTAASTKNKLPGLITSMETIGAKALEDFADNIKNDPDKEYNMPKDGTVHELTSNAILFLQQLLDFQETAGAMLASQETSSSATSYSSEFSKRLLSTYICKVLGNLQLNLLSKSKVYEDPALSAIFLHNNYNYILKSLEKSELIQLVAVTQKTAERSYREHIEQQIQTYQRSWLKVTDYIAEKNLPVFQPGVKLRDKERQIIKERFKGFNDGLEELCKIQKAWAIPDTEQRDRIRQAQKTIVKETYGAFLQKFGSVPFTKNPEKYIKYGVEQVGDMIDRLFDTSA
UniProt Q9UIF9: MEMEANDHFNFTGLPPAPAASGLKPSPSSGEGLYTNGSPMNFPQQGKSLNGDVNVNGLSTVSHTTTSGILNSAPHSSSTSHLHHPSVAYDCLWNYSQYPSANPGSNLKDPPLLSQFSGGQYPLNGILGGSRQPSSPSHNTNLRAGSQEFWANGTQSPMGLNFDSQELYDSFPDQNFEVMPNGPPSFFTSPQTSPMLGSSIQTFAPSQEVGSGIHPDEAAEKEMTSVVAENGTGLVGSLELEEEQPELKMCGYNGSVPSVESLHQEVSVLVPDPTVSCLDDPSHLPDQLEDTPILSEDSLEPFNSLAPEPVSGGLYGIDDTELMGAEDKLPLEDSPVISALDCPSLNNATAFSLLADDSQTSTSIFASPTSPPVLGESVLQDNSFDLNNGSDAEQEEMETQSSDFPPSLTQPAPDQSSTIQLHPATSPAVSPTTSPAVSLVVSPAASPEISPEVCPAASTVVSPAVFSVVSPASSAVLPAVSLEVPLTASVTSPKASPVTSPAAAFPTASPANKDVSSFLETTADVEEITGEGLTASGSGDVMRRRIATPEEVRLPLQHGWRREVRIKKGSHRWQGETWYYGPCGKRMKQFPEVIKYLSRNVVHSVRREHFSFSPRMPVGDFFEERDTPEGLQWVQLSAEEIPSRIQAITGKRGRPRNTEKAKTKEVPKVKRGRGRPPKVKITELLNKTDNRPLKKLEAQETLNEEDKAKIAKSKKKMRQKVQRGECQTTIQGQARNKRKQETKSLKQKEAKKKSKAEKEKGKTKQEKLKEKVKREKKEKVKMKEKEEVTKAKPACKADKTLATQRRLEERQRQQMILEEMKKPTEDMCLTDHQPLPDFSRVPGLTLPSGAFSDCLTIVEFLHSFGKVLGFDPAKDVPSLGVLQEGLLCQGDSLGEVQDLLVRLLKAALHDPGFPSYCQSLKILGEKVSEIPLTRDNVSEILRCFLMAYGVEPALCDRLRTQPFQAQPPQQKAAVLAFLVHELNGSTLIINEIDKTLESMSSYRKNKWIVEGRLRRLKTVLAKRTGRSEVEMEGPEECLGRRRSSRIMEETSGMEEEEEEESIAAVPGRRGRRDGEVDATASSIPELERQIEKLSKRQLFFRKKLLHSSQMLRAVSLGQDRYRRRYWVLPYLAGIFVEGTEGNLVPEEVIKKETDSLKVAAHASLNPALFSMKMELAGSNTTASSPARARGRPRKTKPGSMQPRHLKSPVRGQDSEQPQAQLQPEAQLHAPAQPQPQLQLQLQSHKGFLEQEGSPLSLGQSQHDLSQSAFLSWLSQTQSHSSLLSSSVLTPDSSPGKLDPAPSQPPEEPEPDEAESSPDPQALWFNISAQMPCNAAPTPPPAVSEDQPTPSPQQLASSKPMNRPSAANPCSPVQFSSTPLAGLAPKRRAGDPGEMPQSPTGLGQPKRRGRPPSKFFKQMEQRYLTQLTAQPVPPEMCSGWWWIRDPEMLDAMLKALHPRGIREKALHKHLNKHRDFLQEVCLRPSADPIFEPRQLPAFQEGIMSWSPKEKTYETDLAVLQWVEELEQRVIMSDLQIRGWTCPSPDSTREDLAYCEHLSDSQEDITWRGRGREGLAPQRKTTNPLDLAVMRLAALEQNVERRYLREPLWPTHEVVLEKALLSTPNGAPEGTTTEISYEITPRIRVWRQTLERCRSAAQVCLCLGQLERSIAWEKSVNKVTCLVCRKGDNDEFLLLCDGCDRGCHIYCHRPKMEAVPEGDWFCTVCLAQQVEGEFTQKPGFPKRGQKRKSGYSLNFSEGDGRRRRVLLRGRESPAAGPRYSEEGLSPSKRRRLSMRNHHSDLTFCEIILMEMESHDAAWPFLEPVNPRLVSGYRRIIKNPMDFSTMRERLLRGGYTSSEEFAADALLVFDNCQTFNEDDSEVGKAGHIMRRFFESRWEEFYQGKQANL

| Target | log2 fold change |
| --- | --- |
| NAGK (peptide sequence: AGVDPLVPLR, peptide start residue: 60) (UniProt Q9UJ70) | 0.0988 |
| GINS2 (peptide sequence: LLLNHASDNIPKADEIR, peptide start residue: 98) (UniProt Q9Y248) | 0.109 |
| POLI (peptide sequence: GVLSFFSK, peptide start residue: 567) (UniProt Q9UNA4) | -0.398 |
| LSM7 (peptide sequence: QLGLVVCR, peptide start residue: 70) (UniProt Q9UK45) | -0.0733 |
| APPL1 (peptide sequence: TNPFGESGGSTK, peptide start residue: 479) (UniProt Q9UKG1) | 0.265 |
| MKLN1 (peptide sequence: SLQEEEPCPR, peptide start residue: 575) (UniProt Q9UL63) | 0.7 |
| VPS28 (peptide sequence: QVQGSEISSIDEFCRK, peptide start residue: 83) (UniProt Q9UK41) | -0.166 |
| TSKS (peptide sequence: VDGFLGQWER, peptide start residue: 362) (UniProt Q9UJT2) | -0.127 |
| UniProt Q9ULR5 (peptide sequence: EFIPGEKY, peptide start residue: 116) | 0.0438 |
| EXOC7 (peptide sequence: ALEDFADNIKNDPDKEYNMPK, peptide start residue: 475) (UniProt Q9UPT5) | -0.554 |
| BAZ2A (peptide sequence: NPMDFSTMR, peptide start residue: 1836) (UniProt Q9UIF9) | 0.626 |

In a second layout: results already given
Target	log2 fold change
VPS28 (peptide sequence: QVQGSEISSIDEFCRK, peptide start residue: 83) (UniProt Q9UK41)	-0.166
TSKS (peptide sequence: VDGFLGQWER, peptide start residue: 362) (UniProt Q9UJT2)	-0.127

Source: the supplement of paper PMC12819154, “High-throughput peptide-centric local stability assay extends protein–ligand identification to membrane proteins, tissues and bacteria” (Nature Structural & Molecular Biology, 2025)
